According to PubChem BioAssay AID330 (DTP/NCI, 2004):
The list is a part of this screen's results and no random one: it gathers tests that were run many times, whatever their T/C, doses with no T/C, and many T/C values between a quarter and a half above the control. Further doses and runs are listed elsewhere. T/C: endpoint of the treated group in % of that of the vehicle group. Some entries give survivors of the animals treated and no T/C: the source holds a T/C of zero for them, seemingly a mark for toxic or unscored doses. Some doses without a T/C left all or most animals alive at the check, yet need not have been tolerated: survival well below the control is almost never listed, so the zero probably covers shortened survival too. Counts of survivors are from the toxicity check (mostly the fifth day) where no day follows; animals may have died later. Schedules are NCI's codes, taken here to give the interval after Q, in days (D) or hours (H), and the number of doses after X. Some entries hold several experiments; the values are given in rising order. Where survival is the endpoint, this PubChem deposit counts one and a half times the control or more as active, and values a quarter to a half above the control carry no call in these data; other NCI protocols may use other cut-offs. Counts like (3×) say how often a value occurs here. Some T/C values are followed by the survivors on the day toxicity was checked, most often the fifth; where none is given, no animal had died by that day.

Tested on: P388 leukemia ip, CD2F1 mice, survival T/C
Experiment: NCI In Vivo Anticancer Drug Screen. Data for tumor model P388 Leukemia (intraperitoneal) in CD2F1 (CDF1) mice
Details: T/C endpoint: median survival time, higher T/C = longer survival
[1] = dose: 400.0 mg/kg/injection, schedule: Q01DX005 (ip), vehicle: water
[2] = dose: 100.0 mg/kg/injection, schedule: Q01DX009 (ip), vehicle: Klucel (hydroxypropylcellulose) (HPC)
[3] = dose: 200.0 mg/kg/injection, schedule: Q01DX009 (ip), vehicle: Klucel (hydroxypropylcellulose) (HPC)
[4] = dose: 400.0 mg/kg/injection, schedule: Q01DX009 (ip), vehicle: Klucel (hydroxypropylcellulose) (HPC)
[5] = dose: 200.0 mg/kg/injection, schedule: Q01DX005 (ip), vehicle: Klucel (hydroxypropylcellulose) (HPC)
[6] = dose: 200.0 mg/kg/injection, schedule: Q01DX009 (ip), vehicle: saline with Tween-80
[7] = dose: 400.0 mg/kg/injection, schedule: Q01DX005 (ip), vehicle: Klucel (hydroxypropylcellulose) (HPC)
[8] = dose: 50.0 mg/kg/injection, schedule: Q01DX009 (ip), vehicle: saline with Tween-80
[9] = dose: 100.0 mg/kg/injection, schedule: Q04DX003 (ip), vehicle: Klucel (hydroxypropylcellulose) (HPC)
[10] = dose: 200.0 mg/kg/injection, schedule: Q04DX003 (ip), vehicle: saline with Tween-80

OC(CCl)CN1CC[N+]2(CC1)CC[N+]1(CCN(CC(O)CCl)CC1)CC2 (stereo not drawn)
T/C (dose: 100.0 mg/kg/injection, schedule: Q03HX016 (ip), vehicle: water): 128 % of control | survivor count (dose: 200.0 mg/kg/injection, schedule: Q01DX005 (iv), vehicle: water): 5 of 8 | T/C (dose: 200.0 mg/kg/injection, schedule: Q03HX008 (ip), vehicle: water): 130 % of control | T/C (dose: 200.0 mg/kg/injection, schedule: Q03HX016 (ip), vehicle: water): 134 % of control | survivor count (dose: 200.0 mg/kg/injection, schedule: Q03HX024 (ip), vehicle: water): 9 of 10 | T/C [1]: 127 % of control | survivor count [1]: 0 of 8 | survivor count (dose: 400.0 mg/kg/injection, schedule: Q01DX005 (iv), vehicle: water): 0 of 8 | survivor count (dose: 800.0 mg/kg/injection, schedule: Q01DX005 (ip), vehicle: water): 10 of 10 | survivor count (dose: 800.0 mg/kg/injection, schedule: Q01DX005 (iv), vehicle: water): 0 of 10 | survivor count (dose: 800.0 mg/kg/injection, schedule: Q01DX009 (ip), vehicle: water): 10 of 10 | survivor count (dose: 1600.0 mg/kg/injection, schedule: Q01DX009 (oral), vehicle: water): 10 of 10

COc1cc(NS(C)(=O)=O)ccc1Nc1c2ccccc2nc2cc(C(F)(F)F)c(N)cc12
T/C (dose: 12.5 mg/kg/injection, schedule: Q01DX009 (ip), vehicle: Klucel (hydroxypropylcellulose) (HPC)): 129 % of control | survivor count (dose: 64.8 mg/kg/injection, schedule: Q04DX003 (ip), vehicle: water): 4 of 8 | survivor count [2]: 5 of 6 | T/C (dose: 100.0 mg/kg/injection, schedule: Q04DX003 (ip), vehicle: distilled water + Tween-80): 133 % of control [6 of 8 alive] | survivor count (dose: 108.0 mg/kg/injection, schedule: Q04DX003 (ip), vehicle: water): 2 of 8 | survivor count (dose: 180.0 mg/kg/injection, schedule: Q04DX003 (ip), vehicle: water): 0 of 8 | survivor count [3]: 5 of 6 | survivor count (dose: 300.0 mg/kg/injection, schedule: Q04DX003 (ip), vehicle: water): 0 of 8 | survivor count [4]: 2 of 6 | survivor count (dose: 500.0 mg/kg/injection, schedule: Q04DX003 (ip), vehicle: water): 0 of 8

CN1CC[CH2][Sn]([Cl])([Cl])[CH2]CC1
survivor count (dose: 15.0 mg/kg/injection, schedule: Q01DX005 (ip), vehicle: saline with Tween-80): 0 of 6 | survivor count (dose: 60.0 mg/kg/injection, schedule: Q01DX005 (ip), vehicle: saline with Tween-80): 0 of 6 | survivor count (dose: 120.0 mg/kg/injection, schedule: Q01DX005 (ip), vehicle: saline with Tween-80): 0 of 6 | survivor count (dose: 240.0 mg/kg/injection, schedule: Q01DX005 (ip), vehicle: saline with Tween-80): 0 of 6

CC1(C)CC(Nc2ccccc2)=CC(N2CCOCC2)=N1
survivor count [5]: 3 of 6

CN1CCC(O)(c2ncc(Br)c3ccccc23)CC1
survivor count (dose: 240.0 mg/kg/injection, schedule: Q01DX005 (ip), vehicle: saline + alcohol): 0 of 6

CCN(CCO)CC(C)Nc1ccc([N+](=O)[O-])c2sc3ccccc3c(=O)c12 (stereo not drawn)
T/C (dose: 12.5 mg/kg/injection, schedule: Q01DX009 (ip), vehicle: saline with Tween-80): 136 % of control | survivor count [6]: 6 of 6

Cc1cccc(C)c1N=O
T/C [2]: 130 and 132 % of control | survivor count [3]: 6 of 6

C=CCOc1cc2c(cc1C(C)c1ccc(OC)cc1)OCO2 (stereo not drawn)
T/C (dose: 50.0 mg/kg/injection, schedule: Q01DX005 (ip), vehicle: Klucel (hydroxypropylcellulose) (HPC)): 108, 113 (2×), 117 % of control | T/C (dose: 50.0 mg/kg/injection, schedule: Q01DX005 (ip), vehicle: Klucel + Tween-80): 125 % of control | T/C (dose: 100.0 mg/kg/injection, schedule: Q01DX005 (ip), vehicle: Klucel (hydroxypropylcellulose) (HPC)): 117, 120, 122, 137 % of control | T/C (dose: 100.0 mg/kg/injection, schedule: Q01DX005 (ip), vehicle: Klucel + Tween-80): 136 % of control | T/C [5]: 120, 138, 141, 188 % of control | T/C [7]: 139 % of control | survivor count [7]: 4 of 6 and 4 of 5 | survivor count (dose: 400.0 mg/kg/injection, schedule: Q01DX005 (ip), vehicle: Klucel + Tween-80): 6 of 6 | T/C (dose: 400.0 mg/kg/injection, schedule: Q01DX005 (ip), vehicle: saline with Tween-80): 127 and 128 % of control | survivor count (dose: 800.0 mg/kg/injection, schedule: Q01DX005 (ip), vehicle: Klucel + Tween-80): 1 of 6 | survivor count (dose: 2000.0 mg/kg/injection, schedule: Q01DX001 (ip), vehicle: saline with Tween-80): 5 of 6

N#CCCC[n+]1cc2ccccc2c2ccccc21
survivor count (dose: 200.0 mg/kg/injection, schedule: Q01DX005 (ip), vehicle: saline): 3 of 5

O=C(O)CCCc1cc(I)c(N(CCCl)CCCl)c(I)c1
T/C [8]: 125 % of control | T/C (dose: 100.0 mg/kg/injection, schedule: Q01DX009 (ip), vehicle: saline with Tween-80): 127 and 133 % of control | survivor count [6]: 5 of 6

CCCCCCCCCCCCCCCC(=O)N(CCC#N)C(C)(C)CCC(C)(C)N(CCC#N)C(=O)CCCCCCCCCCCCCCC
survivor count (dose: 50.0 mg/kg/injection, schedule: Q04DX003 (ip), vehicle: Klucel (hydroxypropylcellulose) (HPC)): 6 of 6 | survivor count [9]: 6 of 6

O=C(c1ccccc1)C(C(=O)c1ccccc1)C(c1ccccc1)(c1ccccc1)c1ccccc1
survivor count (dose: 50.0 mg/kg/injection, schedule: Q04DX003 (ip), vehicle: saline with Tween-80): 6 of 6 | survivor count [10]: 6 of 6

O=C(CC(=O)C(F)(F)F)c1csc2ccccc12
survivor count (dose: 100.0 mg/kg/injection, schedule: Q04DX003 (ip), vehicle: saline with Tween-80): 6 of 6 | survivor count [10]: 3 of 6 | survivor count (dose: 400.0 mg/kg/injection, schedule: Q04DX003 (ip), vehicle: saline with Tween-80): 3 of 6

Cc1cc(NC(=O)c2ccc(N)cc2)ccc1N=Nc1ccc2c(O)c(N=Nc3ccc(S(=O)(=O)O)cc3C)c(S(=O)(=O)O)cc2c1
survivor count (dose: 200.0 mg/kg/injection, schedule: Q01DX005 (ip), vehicle: saline with Tween-80): 1 of 6

O=[N+]([O-])c1cnc[nH]1
survivor count [4]: 4 of 6

Cc1c2ccn(Cc3ccccc3)cc2c(C)c2c1nc1ccccc12
survivor count (dose: 77.0 mg/kg/injection, schedule: Q04DX002 (ip), vehicle: saline with Tween-80): 5 of 6 | survivor count (dose: 154.0 mg/kg/injection, schedule: Q04DX002 (ip), vehicle: saline with Tween-80): 1 of 6

COc1cc(/C=C/C2=C(C)C(=O)CC(c3cc(OC)c(OC)c(OC)c3)C2C)cc(OC)c1OC (stereo not drawn)
survivor count [9]: 6 of 6 | survivor count (dose: 200.0 mg/kg/injection, schedule: Q04DX003 (ip), vehicle: Klucel (hydroxypropylcellulose) (HPC)): 6 of 6 | survivor count (dose: 400.0 mg/kg/injection, schedule: Q04DX003 (ip), vehicle: Klucel (hydroxypropylcellulose) (HPC)): 6 of 6

O=C1C=CC(=O)C2=C1CCCC2
survivor count (dose: 25.0 mg/kg/injection, schedule: Q01DX009 (ip), vehicle: saline with Tween-80): 0 of 6 | survivor count [8]: 0 of 6
